Taken from: PubChem BioAssay AID1053208 (Peter MacCallum Cancer Centre, 2014)
In all, the deposit lists about 17,000 reagents; shown is a random part of them. 788 of them (4.7%) count as active. 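Calls rest on z-score classes alone; an extra cut-off of viability at most 70% of control was not applied to them.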 Entries without a mark were called inactive. Further read-outs or replicates are left out here.

Purpose: 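Genes whose silencing cuts survival of bone tumour cells only with doxorubicin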 (primary screen)
System: mouse osteosarcoma cells, early-passage culture from an engineered mouse model of fibroblastic bone tumour
Reagents: siRNA pool against mouse genes, 40 nM
Duration: about 120 h (48 h before drug, then 72 h with drug)
Challenge: doxorubicin 100 nM for 72 h, roughly 30-40% inhibitory dose
Measured: 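Viability read as ATP luminescence after 72 h of 100 nM doxorubicin or none, duplicate wells averaged, scaled to non-targeting siRNA, then expressed as robust z-scores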
Reading the numbers: viability z-score with doxorubicin: higher = more viable cells under doxorubicin; viability z-score without drug: higher = more viable cells with knock-down alone
Rule for the call: 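Called active if knock-down leaves viability unchanged without drug (z within -2 to 2) but lowers it with doxorubicin (z at or under -2)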

Against D030074E01RIK the deposit lists combined z-score class no change with or without drug; viability z-score with doxorubicin 1.12; viability z-score without drug -0.17.
Against Net1 (neuroepithelial cell transforming gene 1) the deposit lists combined z-score class no change with or without drug; viability z-score with doxorubicin 1.12; viability z-score without drug 0.17.
4930522H14Rik (RIKEN cDNA 4930522H14 gene) gave combined z-score class high cell count without drug only; viability z-score with doxorubicin 0.22; viability z-score without drug 2.36.
With knock-down of Arhgap22 (Rho GTPase activating protein 22), the screen gave combined z-score class no change with or without drug; viability z-score with doxorubicin 0.22; viability z-score without drug 0.34.
Rnf227 (ring finger protein 227) gave combined z-score class no change with or without drug; viability z-score with doxorubicin 0.11; viability z-score without drug 0.51.

A few values from the list:
Under “combined z-score class”, D030074E01RIK shows no change with or without drug
4930522H14Rik (RIKEN cDNA 4930522H14 gene), viability z-score with doxorubicin = 0.22

The results go on.
Ssna1 (SS nuclear autoantigen 1) showed combined z-score class no change with or without drug; viability z-score with doxorubicin -1.46; viability z-score without drug 0.17.
Sprr2a1 (small proline-rich protein 2A1) scored combined z-score class low cell count with doxorubicin only (active); viability z-score with doxorubicin -2.02; viability z-score without drug 0.34.
Cpxm2 (carboxypeptidase X, M14 family member 2) gave combined z-score class no change with or without drug; viability z-score with doxorubicin 1.35; viability z-score without drug 0.34.
Depletion of Efnb3 (ephrin B3) came out at: combined z-score class no change with or without drug; viability z-score with doxorubicin -0.22; viability z-score without drug 0.51.
Silencing of Chrna4 (cholinergic receptor, nicotinic, alpha polypeptide 4) gave: combined z-score class no change with or without drug; viability z-score with doxorubicin -1.12; viability z-score without drug -0.34.
Knock-down of Rnf135 (ring finger protein 135) gave: combined z-score class high cell count with doxorubicin only; viability z-score with doxorubicin 2.14; viability z-score without drug 1.85.
Silencing of Ebp (EBP cholestenol delta-isomerase) came out at: combined z-score class no change with or without drug; viability z-score with doxorubicin -1.69; viability z-score without drug -0.84.
